Measured data: PubChem BioAssay AID652243 (Drosophila RNAi Screening Center, 2013)
Assay: 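Knock-downs that decrease or increase androgen receptor reporter signal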 (primary screen). Cells: Drosophila S2R+ cells. Knock-down reagent: long dsRNA against Drosophila genes. Time to read-out: 72 h (48 h, then 24 h hormone). Challenge: synthetic androgen R1881 at 10 nM for 24 h. Read-out: 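Firefly light from an androgen-responsive reporter and Renilla control light per well, raw and unnormalised, for each of two replicates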. Reading the numbers: firefly reporter light: higher = more light from androgen-responsive reporter; Renilla control light: higher = more constitutive control signal (cell number, transfection). Active means: 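Across duplicate plates, a knock-down whose log firefly/Renilla ratio shifted a set fold down or up from the GFP/LacZ control mean was a hit; the downward cut appears as both 1.5 and 3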. Calls: active = hit: reporter lowered or raised; inactive = no hit.
The deposit covers about 24,000 reagents; shown is a random part of those that have a named target and a result. In the full data, 246 (1%) were called active. 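Plates not normalised; calls are printed but the firefly/Renilla ratio behind them is not deposited; fold cut for lowering reported inconsistently.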 The raw values are shown without normalisation. The numbers tell different reagents against one gene apart. A plus sign joins genes that one reagent is predicted to hit. Not stated in the record: the amount of reagent.

| Gene | dsRNA no. | firefly reporter light, replicate 1 | firefly reporter light, replicate 2 | Renilla control light, replicate 1 | Renilla control light, replicate 2 | outcome |
| --- | --- | --- | --- | --- | --- | --- |
| Non3 | 1 | 52521 | 57619 | 7.85e5 | 4.64e5 | inactive |
| Hsp70Aa + Hsp70Ab | 1 | 84468 | 91243 | 3.01e5 | 2.84e5 | inactive |
| Hsp70Aa + Hsp70Ab | 2 | 3.91e5 | 4.36e5 | 1.58e6 | 1.58e6 | active |
| Hsp60D | 1 | 1.00e5 | 1.57e5 | 1.14e6 | 1.16e6 | inactive |
| Hsp60D | 2 | 4.45e5 | 4.77e5 | 1.41e6 | 1.30e6 | inactive |
| CG4053 | 1 | 5.03e5 | 7.51e5 | 6.82e5 | 1.71e6 | inactive |
| CG4053 | 2 | 2.64e5 | 4.00e5 | 9.31e5 | 9.31e5 | inactive |
| CG7530 | 1 | 6.03e5 | 6.02e5 | 1.56e6 | 1.74e6 | inactive |
| CG7530 | 2 | 6.08e5 | 6.65e5 | 1.10e6 | 1.26e6 | inactive |
| CapaR | 1 | 9.24e5 | 1.26e6 | 1.42e6 | 1.25e6 | inactive |
| CG14551 | 1 | 1.86e5 | 2.22e5 | 3.04e6 | 2.84e6 | inactive |
| Fancl | 1 | 79320 | 1.23e5 | 1.49e6 | 1.59e6 | inactive |
| CG3587 | 1 | 3.89e5 | 3.02e5 | 1.43e6 | 6.84e5 | inactive |
| CG3587 | 2 | 5.96e5 | 5.09e5 | 1.43e6 | 1.03e6 | inactive |
| asRNA:CR30267 + CG42260 | 1 | 1.73e5 | 2.16e5 | 4.41e5 | 6.47e5 | inactive |
| Vps53 | 1 | 8.44e5 | 1.02e6 | 1.83e6 | 1.68e6 | inactive |
| Tango10 | 1 | 1.34e5 | 1.05e5 | 1.08e6 | 8.08e5 | inactive |
| Tango10 | 2 | 3.47e5 | 2.43e5 | 5.09e5 | 3.82e5 | inactive |
| CG31109 | 1 | 3.14e5 | 3.23e5 | 3.52e6 | 3.12e6 | inactive |
| Cap-D3 | 1 | 91113 | 73982 | 9.14e5 | 9.82e5 | inactive |
| Cap-D3 | 2 | 3.67e5 | 2.74e5 | 8.83e5 | 5.96e5 | inactive |
| Mgat4b | 1 | 2.14e5 | 1.67e5 | 2.23e6 | 2.02e6 | inactive |
| Mgat4b | 2 | 7.41e5 | 5.52e5 | 1.48e6 | 1.28e6 | inactive |
| GNBP3 | 1 | 1.75e5 | 2.23e5 | 1.70e6 | 2.01e6 | inactive |
| Six4 | 1 | 2.02e5 | 1.42e5 | 1.71e6 | 1.40e6 | inactive |
| Six4 | 2 | 4.13e5 | 4.02e5 | 1.10e6 | 1.32e6 | inactive |
| CG14691 | 1 | 1.41e5 | 1.79e5 | 1.67e6 | 1.46e6 | inactive |
| CG14691 | 2 | 8.11e5 | 3.33e5 | 3.19e6 | 1.52e6 | inactive |
| CG33278 | 1 | 83171 | 72536 | 1.27e6 | 1.36e6 | inactive |
| CG33278 | 2 | 2.71e5 | 2.78e5 | 5.55e5 | 6.35e5 | inactive |
| Targ | 1 | 88884 | 93891 | 9.09e5 | 9.09e5 | inactive |
| CG7011 + Prp31 | 1 | 9.39e5 | 9.94e5 | 9.71e5 | 1.59e6 | inactive |
| CG18094 | 1 | 99705 | 1.04e5 | 1.24e6 | 1.30e6 | inactive |
| CG31445 | 1 | 1.42e5 | 1.36e5 | 9.09e5 | 6.08e5 | inactive |
| CG31445 | 2 | 4.47e5 | 5.31e5 | 1.42e6 | 1.46e6 | inactive |
| CG9737 | 1 | 2.71e5 | 2.86e5 | 3.02e6 | 3.40e6 | inactive |
| CG31371 | 1 | 2.31e5 | 2.06e5 | 1.98e6 | 2.55e6 | inactive |
| CheB42a | 1 | 5.76e5 | 8.43e5 | 2.09e6 | 3.15e6 | inactive |
| CG42268 | 1 | 1.92e5 | 1.70e5 | 3.32e6 | 2.16e6 | inactive |
| CG42268 | 2 | 1.85e5 | 1.95e5 | 2.28e6 | 2.10e6 | inactive |
| CG42268 | 3 | 3.71e5 | 3.66e5 | 2.01e6 | 2.47e6 | inactive |
| CG42268 | 4 | 5.20e5 | 3.96e5 | 5.18e5 | 5.28e5 | inactive |
| CG42268 | 5 | 4.48e5 | 6.58e5 | 1.10e6 | 1.10e6 | inactive |
| Lcp65Ae | 1 | 1.37e5 | 1.97e5 | 1.27e6 | 1.27e6 | inactive |
| CG14369 | 1 | 1.81e5 | 1.75e5 | 3.14e6 | 2.84e6 | inactive |
| CG14369 | 2 | 7.33e5 | 6.74e5 | 1.44e6 | 1.68e6 | inactive |
| CG10321 | 1 | 3.41e5 | 3.74e5 | 2.34e6 | 3.09e6 | inactive |
| CG10321 | 2 | 3.50e5 | 7.48e5 | 1.08e6 | 1.48e6 | inactive |
| UQCR-C1 | 1 | 79651 | 91337 | 9.14e5 | 9.44e5 | inactive |
| CG14618 | 1 | 2.43e5 | 1.74e5 | 6.58e5 | 3.20e5 | inactive |
| CG7362 | 1 | 9.93e5 | 1.18e6 | 2.22e6 | 1.92e6 | inactive |
| CG7362 | 2 | 3.08e5 | 6.51e5 | 6.40e5 | 6.40e5 | inactive |
| CG7362 | 3 | – | – | – | – | inactive |
| CG7551 | 1 | 2.08e5 | 1.75e5 | 2.49e6 | 2.47e6 | inactive |
| CG7551 | 2 | – | – | – | – | inactive |
| Dmtn | 1 | 18866 | 13320 | 1.09e5 | 1.32e5 | inactive |
| Dmtn | 2 | 2.60e5 | 4.87e5 | 8.58e5 | 1.28e6 | inactive |
| CG31036 | 1 | 1.23e5 | 1.47e5 | 2.32e6 | 2.65e6 | inactive |
| CG31036 | 2 | 1.94e5 | 1.29e5 | 2.05e6 | 2.39e6 | inactive |
